Earlier results in patent publication US20220218740A1, “OPIOID-FREE COMPOSITIONS FOR ANESTHESIOLOGICAL APPLICATIONS AND RELATED METHODS AND SYSTEMS” (Vaporworks Nursing Anesthesia Inc., priority 2020, published 2022).

Conditions: in vivo

C[C@@H]1C[C@H]2[C@@H]3CCC4=CC(=O)C=C[C@]4(C)[C@@]3(F)[C@@H](O)C[C@]2(C)[C@@]1(O)C(=O)COP(=O)(O)O [Dexamethasone, Dexamethasone Sodium phosphate]
period of insulin resistance after administration: 24 h
